The subject of one assay is Naive C4-2B PC cells. In words: Growth inhibition of naive C4-2B PC cells cultured as 2D monolayer. Conditions: Homo sapiens.
The test system of another assay is Resistant C4-2B PC cells. In words: Growth inhibition of AA/EZ resistant C4-2B PC cells cultured as 2D monolayer. It is filed as cell-based. Particulars: Homo sapiens.

Like-named read-outs stand apart in the source and are kept apart here.

As to `CNC(=O)c1ccc(N2C(=S)N(c3ccc(C#N)c(C(F)(F)F)c3)C(=O)C2(C)C)cc1F` [EZ, enzalutamide], the IC50 – broadly, the point on the concentration scale where inhibition reaches its midpoint – with Naive C4-2B PC cells (read-out: EZ IC50, Naive C4-2B, 2D monolayer, NIR-SM 0 μM) was 7.69 µM; in the assay with Naive C4-2B PC cells (read-out: EZ IC50, Naive C4-2B, 2D monolayer, NIR-SM 0.25 μM), 1.5 µM; in the assay with Resistant C4-2B PC cells (NIR-SM 0 μM), 10.7 µM; with Resistant C4-2B PC cells (NIR-SM 0.25 μM), 1.56 µM.
